According to the supplement of paper PMC12067093, “Discovery and optimisation of a covalent ligand for TRIM25 and its application to targeted protein ubiquitination” (Chemical Science, 2025):
This is one part of the list.

Protein sequences, listed by entry. Tags and fused reporters are not part of them. Lines headed by an entry give the natural chain unless they say otherwise; changes in a name come on top.
UniProt O95149, whole entry, looked up: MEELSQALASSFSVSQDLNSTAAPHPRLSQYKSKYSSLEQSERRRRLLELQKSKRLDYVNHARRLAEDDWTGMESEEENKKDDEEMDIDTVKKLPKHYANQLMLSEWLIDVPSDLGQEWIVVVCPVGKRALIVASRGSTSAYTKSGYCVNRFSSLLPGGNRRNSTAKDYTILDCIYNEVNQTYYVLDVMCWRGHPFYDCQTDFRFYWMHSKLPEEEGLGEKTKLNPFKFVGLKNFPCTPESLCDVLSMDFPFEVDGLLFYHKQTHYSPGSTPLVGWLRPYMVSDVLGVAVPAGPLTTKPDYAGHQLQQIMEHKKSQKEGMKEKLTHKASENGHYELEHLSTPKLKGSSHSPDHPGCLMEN
UniProt P49458: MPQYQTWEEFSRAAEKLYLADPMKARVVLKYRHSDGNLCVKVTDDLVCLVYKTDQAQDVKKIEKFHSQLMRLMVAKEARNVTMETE
UniProt Q5T280: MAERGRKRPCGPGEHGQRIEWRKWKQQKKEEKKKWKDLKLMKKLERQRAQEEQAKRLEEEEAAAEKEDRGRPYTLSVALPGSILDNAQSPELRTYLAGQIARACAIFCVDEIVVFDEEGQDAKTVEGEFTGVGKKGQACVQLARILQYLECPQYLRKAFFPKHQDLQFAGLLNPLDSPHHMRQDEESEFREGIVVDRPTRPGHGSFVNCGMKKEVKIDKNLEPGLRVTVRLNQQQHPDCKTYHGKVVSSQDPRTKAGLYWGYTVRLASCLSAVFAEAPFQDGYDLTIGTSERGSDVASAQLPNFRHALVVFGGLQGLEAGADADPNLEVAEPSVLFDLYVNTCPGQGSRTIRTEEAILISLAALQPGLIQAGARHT
UniProt Q8TB22: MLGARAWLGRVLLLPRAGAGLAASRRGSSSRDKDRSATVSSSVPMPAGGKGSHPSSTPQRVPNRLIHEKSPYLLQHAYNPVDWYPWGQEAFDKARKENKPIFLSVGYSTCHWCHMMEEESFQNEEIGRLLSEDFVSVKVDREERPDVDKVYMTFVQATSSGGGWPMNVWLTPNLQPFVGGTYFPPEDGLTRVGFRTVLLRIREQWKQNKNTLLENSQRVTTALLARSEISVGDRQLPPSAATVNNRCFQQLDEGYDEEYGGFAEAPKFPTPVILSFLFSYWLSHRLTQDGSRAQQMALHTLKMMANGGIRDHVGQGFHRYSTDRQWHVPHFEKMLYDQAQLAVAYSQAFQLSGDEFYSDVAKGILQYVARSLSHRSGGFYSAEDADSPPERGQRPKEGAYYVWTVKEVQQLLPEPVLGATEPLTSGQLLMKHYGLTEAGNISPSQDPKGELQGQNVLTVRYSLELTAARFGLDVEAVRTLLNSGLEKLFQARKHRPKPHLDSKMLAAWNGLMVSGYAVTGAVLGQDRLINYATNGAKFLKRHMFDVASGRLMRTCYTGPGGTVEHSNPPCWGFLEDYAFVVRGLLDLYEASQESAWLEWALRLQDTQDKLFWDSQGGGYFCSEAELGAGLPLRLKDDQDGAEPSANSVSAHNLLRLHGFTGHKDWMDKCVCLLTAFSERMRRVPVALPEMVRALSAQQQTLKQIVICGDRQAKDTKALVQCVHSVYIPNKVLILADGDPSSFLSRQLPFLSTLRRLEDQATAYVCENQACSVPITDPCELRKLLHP
UniProt Q02447: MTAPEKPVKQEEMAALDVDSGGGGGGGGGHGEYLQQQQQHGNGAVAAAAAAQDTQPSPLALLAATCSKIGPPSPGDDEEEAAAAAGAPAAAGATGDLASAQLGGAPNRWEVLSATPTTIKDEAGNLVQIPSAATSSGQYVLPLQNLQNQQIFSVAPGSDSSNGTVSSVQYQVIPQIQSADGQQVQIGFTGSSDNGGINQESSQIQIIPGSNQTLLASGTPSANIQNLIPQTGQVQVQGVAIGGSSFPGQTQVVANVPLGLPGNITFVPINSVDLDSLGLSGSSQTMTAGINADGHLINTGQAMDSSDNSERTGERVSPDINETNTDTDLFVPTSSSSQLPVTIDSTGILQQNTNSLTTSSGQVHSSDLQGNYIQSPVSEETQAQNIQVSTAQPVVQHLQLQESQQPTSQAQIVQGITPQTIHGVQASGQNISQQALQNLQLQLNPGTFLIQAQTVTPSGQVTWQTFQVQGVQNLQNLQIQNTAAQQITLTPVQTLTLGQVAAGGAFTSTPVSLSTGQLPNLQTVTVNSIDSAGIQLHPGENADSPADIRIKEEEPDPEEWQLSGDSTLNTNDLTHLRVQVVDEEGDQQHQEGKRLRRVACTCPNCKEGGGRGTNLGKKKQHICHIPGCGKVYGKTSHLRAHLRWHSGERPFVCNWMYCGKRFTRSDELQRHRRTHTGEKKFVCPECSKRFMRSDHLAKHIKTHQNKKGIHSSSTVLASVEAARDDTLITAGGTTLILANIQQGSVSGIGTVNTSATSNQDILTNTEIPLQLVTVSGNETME
UniProt Q12772: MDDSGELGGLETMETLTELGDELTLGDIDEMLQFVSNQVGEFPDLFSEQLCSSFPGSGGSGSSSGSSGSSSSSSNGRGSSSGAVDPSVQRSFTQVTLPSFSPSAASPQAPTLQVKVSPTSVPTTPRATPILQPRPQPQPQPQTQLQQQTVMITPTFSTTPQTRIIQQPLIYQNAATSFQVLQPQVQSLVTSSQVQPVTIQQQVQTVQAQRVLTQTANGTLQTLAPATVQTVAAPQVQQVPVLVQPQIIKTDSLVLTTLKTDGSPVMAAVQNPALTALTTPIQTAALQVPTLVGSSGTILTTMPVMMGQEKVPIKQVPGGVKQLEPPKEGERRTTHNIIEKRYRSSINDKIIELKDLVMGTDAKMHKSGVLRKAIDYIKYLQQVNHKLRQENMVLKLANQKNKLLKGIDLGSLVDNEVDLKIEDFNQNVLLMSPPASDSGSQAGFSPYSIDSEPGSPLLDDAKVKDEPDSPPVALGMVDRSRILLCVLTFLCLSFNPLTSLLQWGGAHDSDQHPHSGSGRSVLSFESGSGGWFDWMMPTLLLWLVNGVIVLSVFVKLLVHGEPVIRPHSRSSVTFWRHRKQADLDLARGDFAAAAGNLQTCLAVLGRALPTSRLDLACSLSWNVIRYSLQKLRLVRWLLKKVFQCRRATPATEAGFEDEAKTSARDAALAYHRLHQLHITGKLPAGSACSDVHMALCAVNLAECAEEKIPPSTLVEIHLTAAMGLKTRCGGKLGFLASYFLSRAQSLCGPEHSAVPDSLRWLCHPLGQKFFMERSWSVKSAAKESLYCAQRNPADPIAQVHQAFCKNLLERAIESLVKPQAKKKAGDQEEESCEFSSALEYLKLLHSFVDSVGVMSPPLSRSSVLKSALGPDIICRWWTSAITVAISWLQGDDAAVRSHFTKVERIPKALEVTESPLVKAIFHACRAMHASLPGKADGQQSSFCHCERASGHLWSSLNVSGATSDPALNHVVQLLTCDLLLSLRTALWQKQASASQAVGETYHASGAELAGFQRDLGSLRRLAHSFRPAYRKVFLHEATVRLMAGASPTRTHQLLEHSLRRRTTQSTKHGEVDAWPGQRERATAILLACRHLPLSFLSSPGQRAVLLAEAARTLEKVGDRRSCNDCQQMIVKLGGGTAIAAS
UniProt Q9HB58: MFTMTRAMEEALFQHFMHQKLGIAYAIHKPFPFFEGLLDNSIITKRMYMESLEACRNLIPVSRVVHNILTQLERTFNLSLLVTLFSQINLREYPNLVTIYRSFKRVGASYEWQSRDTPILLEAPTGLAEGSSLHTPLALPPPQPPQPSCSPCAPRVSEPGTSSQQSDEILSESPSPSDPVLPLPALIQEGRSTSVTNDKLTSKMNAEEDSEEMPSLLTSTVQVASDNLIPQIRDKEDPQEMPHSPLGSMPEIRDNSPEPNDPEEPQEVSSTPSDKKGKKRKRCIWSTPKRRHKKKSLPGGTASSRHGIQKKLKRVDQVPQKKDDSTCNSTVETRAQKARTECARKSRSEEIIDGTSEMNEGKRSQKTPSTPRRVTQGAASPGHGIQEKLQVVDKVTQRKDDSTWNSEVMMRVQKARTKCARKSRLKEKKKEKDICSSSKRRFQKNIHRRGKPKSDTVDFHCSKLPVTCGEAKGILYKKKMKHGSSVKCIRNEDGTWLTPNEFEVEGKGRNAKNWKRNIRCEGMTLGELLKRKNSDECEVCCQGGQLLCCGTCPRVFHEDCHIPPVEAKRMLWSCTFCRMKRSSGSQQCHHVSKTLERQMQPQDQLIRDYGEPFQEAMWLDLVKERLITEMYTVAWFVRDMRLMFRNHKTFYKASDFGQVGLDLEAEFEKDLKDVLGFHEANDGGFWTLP
UniProt Q9UBP0: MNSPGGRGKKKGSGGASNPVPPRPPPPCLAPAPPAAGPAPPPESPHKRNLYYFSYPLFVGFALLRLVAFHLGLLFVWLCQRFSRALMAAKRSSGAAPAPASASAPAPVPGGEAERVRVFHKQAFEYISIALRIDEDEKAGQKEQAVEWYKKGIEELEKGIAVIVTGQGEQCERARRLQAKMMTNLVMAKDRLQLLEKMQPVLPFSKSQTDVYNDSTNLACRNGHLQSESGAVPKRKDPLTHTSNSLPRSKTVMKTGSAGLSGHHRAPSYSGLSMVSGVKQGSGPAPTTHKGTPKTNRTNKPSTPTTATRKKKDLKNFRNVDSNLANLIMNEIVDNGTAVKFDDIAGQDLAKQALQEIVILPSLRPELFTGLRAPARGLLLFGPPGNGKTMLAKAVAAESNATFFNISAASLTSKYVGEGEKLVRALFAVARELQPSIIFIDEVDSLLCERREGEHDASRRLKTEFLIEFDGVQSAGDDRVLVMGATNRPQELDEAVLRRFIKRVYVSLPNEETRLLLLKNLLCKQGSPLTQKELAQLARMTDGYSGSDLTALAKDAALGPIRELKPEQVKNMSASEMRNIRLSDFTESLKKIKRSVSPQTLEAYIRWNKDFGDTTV
UniProt Q8N5C6: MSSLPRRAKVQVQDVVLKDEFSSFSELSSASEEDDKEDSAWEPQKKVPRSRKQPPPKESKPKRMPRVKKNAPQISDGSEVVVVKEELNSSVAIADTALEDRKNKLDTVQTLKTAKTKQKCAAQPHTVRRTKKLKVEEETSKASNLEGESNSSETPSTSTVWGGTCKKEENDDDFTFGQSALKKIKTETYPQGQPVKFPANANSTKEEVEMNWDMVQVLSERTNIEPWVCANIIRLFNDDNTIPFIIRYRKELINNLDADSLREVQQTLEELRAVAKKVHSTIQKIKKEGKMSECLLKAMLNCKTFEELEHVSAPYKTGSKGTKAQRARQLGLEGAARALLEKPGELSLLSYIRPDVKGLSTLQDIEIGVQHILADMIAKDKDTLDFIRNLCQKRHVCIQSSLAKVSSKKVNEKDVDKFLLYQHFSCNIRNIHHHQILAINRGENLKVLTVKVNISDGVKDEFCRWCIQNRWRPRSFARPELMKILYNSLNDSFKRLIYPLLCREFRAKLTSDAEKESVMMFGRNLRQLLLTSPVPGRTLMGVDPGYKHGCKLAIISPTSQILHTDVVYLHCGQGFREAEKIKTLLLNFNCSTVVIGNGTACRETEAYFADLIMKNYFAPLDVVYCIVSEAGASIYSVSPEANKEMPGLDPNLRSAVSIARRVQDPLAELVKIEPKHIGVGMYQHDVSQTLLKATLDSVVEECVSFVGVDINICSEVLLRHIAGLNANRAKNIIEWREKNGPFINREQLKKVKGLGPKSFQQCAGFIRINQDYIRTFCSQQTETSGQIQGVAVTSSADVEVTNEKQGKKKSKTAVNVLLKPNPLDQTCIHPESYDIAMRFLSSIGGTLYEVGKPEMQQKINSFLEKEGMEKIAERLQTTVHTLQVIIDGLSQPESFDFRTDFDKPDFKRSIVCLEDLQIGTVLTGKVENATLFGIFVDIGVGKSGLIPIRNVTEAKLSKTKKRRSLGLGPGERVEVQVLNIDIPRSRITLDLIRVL
UniProt O60504: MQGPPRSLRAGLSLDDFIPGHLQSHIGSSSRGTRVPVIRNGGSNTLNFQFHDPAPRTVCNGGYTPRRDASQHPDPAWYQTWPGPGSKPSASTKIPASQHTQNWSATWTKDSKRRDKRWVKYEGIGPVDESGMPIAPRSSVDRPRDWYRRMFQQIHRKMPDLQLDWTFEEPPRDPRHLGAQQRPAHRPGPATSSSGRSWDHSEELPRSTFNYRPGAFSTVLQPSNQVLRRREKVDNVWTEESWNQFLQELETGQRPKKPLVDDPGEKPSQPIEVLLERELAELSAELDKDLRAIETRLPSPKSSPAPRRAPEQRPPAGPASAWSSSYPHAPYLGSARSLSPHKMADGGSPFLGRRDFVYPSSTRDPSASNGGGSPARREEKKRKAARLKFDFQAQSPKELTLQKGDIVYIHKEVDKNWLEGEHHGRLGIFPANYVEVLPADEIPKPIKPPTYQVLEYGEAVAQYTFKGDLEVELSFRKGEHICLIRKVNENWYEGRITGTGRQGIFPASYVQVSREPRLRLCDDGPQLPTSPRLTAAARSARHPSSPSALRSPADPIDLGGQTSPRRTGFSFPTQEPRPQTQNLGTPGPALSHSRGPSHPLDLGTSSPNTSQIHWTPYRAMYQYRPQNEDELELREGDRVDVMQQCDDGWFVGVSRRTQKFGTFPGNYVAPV

These targets were tested with Cc1cc(ccc1-c1ccccc1)C(=O)N1CCCN(CC1)C(=O)CCl [compound 10] (assay: probe-labelled cysteine peptide fold change vs DMSO (competition) (log2 fold change); higher = less target engagement (more negative = stronger competition)). Details: 10 µM; THP-1; incubation time: 4 h.
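Further: competitive profiling in live THP-1 cells: cysteine peptides tagged with an iodoacetamide desthiobiotin (IA-DTB) probe, intensity after compound treatment relative to DMSO-treated cells.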

| Target | probe-labelled cysteine peptide fold change |
| --- | --- |
| SNUPN_O95149_199_GHPFYDCQTDFR (UniProt O95149) | 0.193 |
| SPTLC1_O15269_192_AACFAIQK (UniProt O15269) | 0.0464 |
| SRP9_P49458_48_VTDDLVCLVYKTDQAQDVK (UniProt P49458) | 0.189 |
| SPOUT1_Q5T280_139_KGQACVQLAR (UniProt Q5T280) | 0.0141 |
| SON_P18583_92_CVSVQTDPTDEIPTKK (UniProt P18583) | -0.351 |
| SPOUT1_Q5T280_151_ILQYLECPQYLR (UniProt Q5T280) | -0.0551 |
| SQOR_Q9Y6N5_337_RYPNVFGIGDCTNLPTSK (UniProt Q9Y6N5) | -0.0864 |
| SPATA20_Q8TB22_721_ALVQCVHSVYIPNK (UniProt Q8TB22) | 0.0848 |
| SPAG7_O75391_101_SILHDVVEVAGLTSFSFGEDDDCR (UniProt O75391) | -0.0328 |
| SP3_Q02447_602_VACTCPNCK (UniProt Q02447) | 0.0547 |
| SREBF2_Q12772_832_AGDQEEESCEFSSALEYLK (UniProt Q12772) | 0.0639 |
| SP110_Q9HB58_327_DDSTCNSTVETR (UniProt Q9HB58) | -0.102 |
| SPAST_Q9UBP0_220_SQTDVYNDSTNLACR (UniProt Q9UBP0) | -0.252 |
| SPTBN1_Q01082_964_DALLSALSIQNYHLECNETK (UniProt Q01082) | 0.226 |
| SRBD1_Q8N5C6_912_SIVCLEDLQIGTVLTGK (UniProt Q8N5C6) | -0.159 |
| SORBS3_O60504_482_GEHICLIR (UniProt O60504) | 0.162 |

Shown comma-delimited: part of the list above.
Target,probe-labelled cysteine peptide fold change
SRP9_P49458_48_VTDDLVCLVYKTDQAQDVK (UniProt P49458),0.189
SP3_Q02447_602_VACTCPNCK (UniProt Q02447),0.0547
